# The list does not hold the whole screen: it covers a few groups of compounds. Other doses and runs of a compound may be missing. T/C is the treated group as % of the vehicle group. Some doses have a count of surviving animals in place of a T/C: the source files T/C as zero there, which appears to mark a toxic dose or a test without result, not a measured value. Some doses without a T/C left all or most animals alive at the check, yet need not have been tolerated: survival well below the control is almost never listed, so the zero probably covers shortened survival too. Survivors were counted at the toxicity check, usually on the fifth day, unless a day is given; later deaths do not show. Schedule codes are those of the source, read here as Q, the interval in days (D) or hours (H), X, the number of doses. Some schedule codes hold Z or #, which are not explained here. Where survival is the endpoint, this PubChem deposit counts one and a half times the control or more as active, and values a quarter to a half above the control carry no call in these data; other NCI protocols may use other cut-offs. Some entries hold several experiments; their values stand side by side, smallest first. Some molecules as drawn cover several salts, stereoisomers or complexes of the source; a dose is that of the sample tested. Some T/C values are marked as having no survivor count here; that says nothing about deaths at the dose. Some T/C values are followed by the survivors on the day toxicity was checked, most often the fifth; where neither a count nor a note follows, no animal had died by that day.
# Tested on: L1210 leukemia ip in BDF1 mice, survival T/C
# Assay: NCI In Vivo Anticancer Drug Screen. Data for tumor model L1210 Leukemia (intraperitoneal) in B6D2F1 (BDF1) mice
# Conditions: T/C endpoint: mean survival time, higher T/C = longer survival
# [1] = dose: 67.5 mg/kg/injection, schedule: Q01DX Z (ip), vehicle: methylcellulose (MC)
# [2] = dose: 50.0 mg/kg/injection, schedule: Q01DX009 (ip), vehicle: Klucel (hydroxypropylcellulose) (HPC)
# [3] = dose: 100.0 mg/kg/injection, schedule: Q01DX009 (ip), vehicle: Klucel (hydroxypropylcellulose) (HPC)
# [4] = dose: 100.0 mg/kg/injection, schedule: Q04DX003 (ip), vehicle: Klucel (hydroxypropylcellulose) (HPC)
# [5] = dose: 200.0 mg/kg/injection, schedule: Q04DX003 (ip), vehicle: Klucel (hydroxypropylcellulose) (HPC)
# [6] = dose: 400.0 mg/kg/injection, schedule: Q04DX003 (ip), vehicle: Klucel (hydroxypropylcellulose) (HPC)
# [7] = dose: 100.0 mg/kg/injection, schedule: Q04DX002 (ip), vehicle: saline
# [8] = dose: 200.0 mg/kg/injection, schedule: Q04DX002 (ip), vehicle: saline
# [9] = dose: 400.0 mg/kg/injection, schedule: Q04DX002 (ip), vehicle: saline
# [10] = dose: 100.0 mg/kg/injection, schedule: Q04DX003 (ip), vehicle: saline
# [11] = dose: 200.0 mg/kg/injection, schedule: Q04DX003 (ip), vehicle: saline
# [12] = dose: 400.0 mg/kg/injection, schedule: Q04DX003 (ip), vehicle: saline
# [13] = dose: 100.0 mg/kg/injection, schedule: Q01DX001 (ip), vehicle: saline
# [14] = dose: 200.0 mg/kg/injection, schedule: Q01DX001 (ip), vehicle: saline
# [15] = dose: 400.0 mg/kg/injection, schedule: Q01DX001 (ip), vehicle: saline
compound,measurement,setting,value
NC(CC(=O)O)c1cccc(N(CCCl)CCCl)c1 (centres undefined),T/C,"dose: 4.0 mg/kg/injection, schedule: Q01DX Z (ip), vehicle: carboxymethylcellulose (CMC)",114 % of control
same,T/C,"dose: 6.0 mg/kg/injection, schedule: Q01DX Z (ip), vehicle: carboxymethylcellulose (CMC)",124 % of control
same,T/C,"dose: 9.0 mg/kg/injection, schedule: Q01DX Z (ip), vehicle: carboxymethylcellulose (CMC)",134 % of control
same,T/C,"dose: 9.0 mg/kg/injection, schedule: Q01DX Z (ip), vehicle: methylcellulose (MC)",212 % of control
same,T/C,"dose: 13.0 mg/kg/injection, schedule: Q01DX Z (ip), vehicle: methylcellulose (MC)",202 % of control
same,T/C,"dose: 20.0 mg/kg/injection, schedule: Q01DX Z (ip), vehicle: methylcellulose (MC)","169, 176, 226 % of control"
same,T/C,"dose: 30.0 mg/kg/injection, schedule: Q01DX Z (ip), vehicle: methylcellulose (MC)","147, 152, 161 % of control"
same,T/C,"dose: 45.0 mg/kg/injection, schedule: Q01DX Z (ip), vehicle: methylcellulose (MC)",132 and 139 % of control
same,T/C,[1],88 % of control [5 of 6 alive]
same,survivor count,[1],6 of 6
CCOC(=O)C(C)Oc1c([N+](=O)[O-])cc([N+](=O)[O-])cc1[N+](=O)[O-] (centres undefined),T/C,"dose: 25.0 mg/kg/injection, schedule: Q01DX009 (ip), vehicle: Klucel (hydroxypropylcellulose) (HPC)",95 % of control
same,T/C,"dose: 25.0 mg/kg/injection, schedule: Q04DX003 (ip), vehicle: Klucel (hydroxypropylcellulose) (HPC)",102 % of control
same,T/C,[2],93 % of control
same,T/C,"dose: 50.0 mg/kg/injection, schedule: Q04DX003 (ip), vehicle: Klucel (hydroxypropylcellulose) (HPC)",91 % of control
same,T/C,[3],95 % of control
same,T/C,[4],100 and 102 % of control
same,survivor count,[5],6 of 6
same,survivor count,[6],6 of 6
ClCCN(CCCl)c1ccccc1.[C-]#[O+].[C-]#[O+].[C-]#[O+].[Cr],T/C,[4],113 % of control
same,T/C,[5],103 % of control
same,survivor count,[6],6 of 6
CCCCN.N#CN/C(N)=N/P(=O)(Oc1ccccc1)Oc1ccccc1,T/C,"dose: 100.0 mg/kg/injection, schedule: Q04DX002 (ip), vehicle: saline with Tween-80",96 % of control
same,T/C,"dose: 200.0 mg/kg/injection, schedule: Q04DX002 (ip), vehicle: saline with Tween-80",92 % of control
same,T/C,"dose: 400.0 mg/kg/injection, schedule: Q04DX002 (ip), vehicle: saline with Tween-80",96 % of control
CCN(CC)P(=O)(OCCCC=O)N(CCCl)CCCl (centres undefined),T/C,"dose: 100.0 mg/kg/injection, schedule: Q01DX001 (ip), vehicle: other",90 % of control
same,T/C,"dose: 200.0 mg/kg/injection, schedule: Q01DX001 (ip), vehicle: other",95 % of control
same,survivor count,"dose: 400.0 mg/kg/injection, schedule: Q01DX001 (ip), vehicle: other",0 of 6
FC1(F)SC(Cl)C(Cl)(Cl)C1(F)F (centres undefined),T/C,[7],97 % of control
same,T/C,[8],97 % of control
same,survivor count,[9],3 of 3
O=C(O)C1C[N+]12C=CC=CC2=O (centres undefined),T/C,[10],100 % of control [5 of 6 alive]
same,T/C,[11],98 % of control
same,T/C,[12],98 % of control [4 of 6 alive]
Nc1cc([As](=O)(O)O)ccc1O,T/C,"dose: 2.5 mg/kg/injection, schedule: Q01DX009 (ip), vehicle: saline with Tween-80",111 % of control
same,T/C,"dose: 5.0 mg/kg/injection, schedule: Q01DX009 (ip), vehicle: saline with Tween-80",97 % of control
same,T/C,"dose: 10.0 mg/kg/injection, schedule: Q01DX009 (ip), vehicle: saline with Tween-80",97 % of control
O=C(CO)Nc1ccc([As](=O)(O)O)cc1,T/C,"dose: 100.0 mg/kg/injection, schedule: Q01DX009 (ip), vehicle: saline, evaluated on day 20",96 % of control
same,T/C,"dose: 100.0 mg/kg/injection, schedule: Q01DX009 (ip), vehicle: saline, evaluated on day 30",97 % of control
same,T/C,[10],100 % of control
same,T/C,"dose: 200.0 mg/kg/injection, schedule: Q01DX009 (ip), vehicle: saline, evaluated on day 20",91 % of control
same,T/C,"dose: 200.0 mg/kg/injection, schedule: Q01DX009 (ip), vehicle: saline, evaluated on day 30",91 % of control
same,T/C,[11],97 % of control
same,T/C,"dose: 400.0 mg/kg/injection, schedule: Q01DX009 (ip), vehicle: saline, evaluated on day 20",96 % of control
same,T/C,"dose: 400.0 mg/kg/injection, schedule: Q01DX009 (ip), vehicle: saline, evaluated on day 30",92 % of control
same,T/C,[12],100 % of control
C[Si](C)(C)CCCNCCCl,T/C,"dose: 100.0 mg/kg/injection, schedule: Q01DX001 (ip), vehicle: carboxymethylcellulose (CMC)",104 % of control
same,survivor count,"dose: 200.0 mg/kg/injection, schedule: Q01DX001 (ip), vehicle: carboxymethylcellulose (CMC)",1 of 4
same,survivor count,"dose: 400.0 mg/kg/injection, schedule: Q01DX001 (ip), vehicle: carboxymethylcellulose (CMC)",0 of 4
NNC(=O)NP(=O)(NC(=O)NN)NC(=O)NN,T/C,"dose: 50.0 mg/kg/injection, schedule: Q01DX001 (ip), vehicle: saline",97 % of control
same,T/C,[13],92 % of control
same,T/C,[14],97 % of control
same,T/C,[15],100 % of control
COCC(NCCCl)c1ccccc1 (centres undefined),T/C,[7],109 % of control
same,T/C,[8],105 % of control
same,T/C,[9],109 % of control
CC1(C)CC[P+](C)(c2ccccc2)c2ccccc21.F[P-](F)(F)(F)(F)F (centres undefined),T/C,"dose: 3.13 mg/kg/injection, schedule: Q01DX009 (ip), vehicle: saline with Tween-80",95 % of control
same,T/C,"dose: 6.25 mg/kg/injection, schedule: Q01DX009 (ip), vehicle: saline with Tween-80",100 % of control
same,T/C,"dose: 12.5 mg/kg/injection, schedule: Q01DX009 (ip), vehicle: saline with Tween-80",94 and 106 % of control
same,survivor count,"dose: 25.0 mg/kg/injection, schedule: Q01DX009 (ip), vehicle: saline with Tween-80",2 of 3
same,survivor count,"dose: 50.0 mg/kg/injection, schedule: Q01DX009 (ip), vehicle: saline with Tween-80",0 of 3
same,survivor count,"dose: 100.0 mg/kg/injection, schedule: Q01DX009 (ip), vehicle: saline with Tween-80",0 of 3
same,survivor count,"dose: 200.0 mg/kg/injection, schedule: Q01DX009 (ip), vehicle: saline with Tween-80",0 of 3
CN[N+](=O)[O-],T/C,"dose: 50.0 mg/kg/injection, schedule: Q04DX003 (ip), vehicle: saline",103 % of control [survivor count not shown]
same,T/C,[13],88 % of control [survivor count not shown]
same,T/C,[10],103 % of control [survivor count not shown]
same,T/C,[14],100 % of control [survivor count not shown]
same,T/C,[11],111 % of control [survivor count not shown]
same,T/C,[15],95 % of control [survivor count not shown]
O=P(Cl)(Cl)NC12CC3CC(CC(C3)C1)C2,T/C,[2],95 % of control
same,T/C,[3],101 % of control
same,T/C,[4],92 % of control
same,survivor count,"dose: 200.0 mg/kg/injection, schedule: Q01DX009 (ip), vehicle: Klucel (hydroxypropylcellulose) (HPC)",2 of 6
same,T/C,[5],93 % of control
same,survivor count,[6],0 of 6
